Test results taken from PubChem BioAssay AID504444 (National Center for Advancing Translational Sciences (NCATS), 2011).
About 7,500 (2.1%) of roughly 360,000 compounds were called active. Inconclusive results, whose numbers are uncertain, are shown with a selection of clear calls. The call rests on the fitted dose curve; in most records, active means well fitted inhibition curve with a large enough effect; inconclusive means small, poorly fitted or top-dose-only effect, or effect the other way; inactive means flat fitted curve, though single readings scatter. Potencies of inconclusive entries are doubtful fits and often do not repeat.

Assay: Nrf2 qHTS screen for inhibitors; further: nearly all actives have a fitted effect of over 60% in size
Settings: A549 ARE-Fluc reporter, luciferase luminescence, 18-24 h; activity change, negative = inhibition: at 46 µM (top of the series)
Summary of the method: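 A549 ARE_Fluc cells, 5000/well, 5% FBS OPTI-MEM; compounds in dose-response, 18-24 h at 37 °C/5% CO2; CellTiter-Fluor viability read (Ex 405/Em 525), then BugLite luciferase luminescence = Nrf2 activity.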
On the % scale 0 is the no-effect control and ±100 the full control effect; potency means the concentration at half of the fitted maximal effect.

Row | SMILES | Potency | activity change, negative = inhibition
1 | Cc1cccc(Oc2cc(NC(=O)c3ccccc3)cc([N+](=O)[O-])c2)c1 | active: 13 µM | –
2 | CCOC(=O)c1c(Nc2ccc(F)cc2)nnc(-c2ccccc2)c1-c1ccccc1 | inconclusive: 23.1 µM [falling, single point] | –
3 | O=C(Nc1ccc(Cl)cn1)c1ccc(COc2ccccc2Br)o1 | inconclusive: 1.3 µM [activator, partial curve] | –
4 | Cc1nc2ccc(S(=O)(=O)N(CC(=O)Nc3cccc(Cl)c3)Cc3ccccc3)cc2s1 | inconclusive: 20.6 µM [falling, single point] | –
5 | CSc1ccccc1NS(=O)(=O)c1ccc2c(c1)OCCO2 | inconclusive: 32.6 µM [falling, single point] | –
6 | Nc1nnc(SCC(=O)Nc2cccc(S(=O)(=O)N3CCCCC3)c2)s1 | inconclusive: 10.3 µM [falling, partial curve, poor fit] | –
7 | O=C1c2cc([N+](=O)[O-])ccc2-c2cc(Br)c(N=C(NO)C(F)(F)F)cc21 | – | inactive: 9.93%
8 | Cc1ccccc1C(=O)NC(CC(C)C)C(=O)OCc1cc(=O)n2cc(Br)ccc2n1 (stereo not given) | inconclusive: 29.1 µM [activator, single point] | –
9 | Cc1ccc(OCCN2CCN(c3ncnc4sc(C)c(C)c34)CC2)cc1 | inconclusive: 2.59 µM [falling, full curve, poor fit] | –
10 | COC(=O)c1sc(NC(=O)COc2ccc(C)cc2)nc1C | inconclusive: 29.1 µM [falling, single point] | –
11 | CCSc1nc(C2CC2)cc(-c2cccs2)c1C#N | inconclusive: 13 µM [activator, partial curve] | –
12 | NS(=O)(=O)OCCCCCc1ccccc1 | inconclusive: 4.11 µM [activator, partial curve, poor fit] | –
13 | CCN(CC)c1cc(C)c(C#N)c2nc3ccccc3n12 | inconclusive: 7.31 µM [falling, partial curve, poor fit] | –
14 | Cc1nc2cccnc2n1C1CCN(S(=O)(=O)N(C)C)CC1 | inconclusive: 29.1 µM [activator, single point] | –
15 | O=C(CC1C(=O)NCCN1C/C=C/c1ccccc1)NCCc1cccnc1 (stereo not given) | inconclusive: 16.4 µM [falling, single point] | –
16 | CCOC(=O)C(Cc1ccc(NC(C)=O)cc1)N1C(=O)c2ccccc2C1=O (stereo not given) | – | inactive: 7.91%
17 | CNC(=S)N/N=C/c1ccc(C(C)C)cc1 | inconclusive: 1.64 µM [activator, full curve] | –
18 | O=C1NN(c2ccccc2)C(=O)/C1=C\c1cccn1-c1ccc(Cl)c([N+](=O)[O-])c1 | inconclusive: 14.6 µM [falling, partial curve, poor fit] | –
19 | CCOC(=O)c1cnc2cc(-c3ccc(C(C)(C)C)cc3)nn2c1N | inconclusive: 0.411 µM [activator, full curve, poor fit] | –
20 | CCn1c(N2CCN(S(=O)(=O)c3ccc(OC)cc3)CC2)nc2ccccc21 | active: 20.6 µM | –
21 | CCOC(=O)c1ccc(NC(=O)C2(c3ccc(Cl)cc3)CCCC2)cc1 | inconclusive: 29.1 µM [falling, single point] | –
22 | Cc1cccc(OCCCC(=O)Nc2ccc(Cl)c(S(=O)(=O)N3CCOCC3)c2)c1 | inconclusive: 29.1 µM [falling, single point] | –

Row | SMILES | Potency | activity change, negative = inhibition
23 | O=c1c(S(=O)(=O)c2ccc(Cl)cc2)cn(Cc2ccccc2)c2ccc(F)cc12 | – | inactive: -23.3%
24 | COC(=O)c1ccccc1NC(=O)c1ccc(COc2cc(C)cc(C)c2)o1 | inactive | –
25 | Cc1ncc(CO)c2c1Oc1nc(-c3ccc(F)cc3)nc(SCC(=O)N3CCCCC3)c1C2 | inconclusive: 29.1 µM [activator, single point] | –
26 | CC(=O)N/C(=C\c1ccccc1)C(=O)OCc1cccc(S(=O)(=O)N(C)C)c1 | active: 23.1 µM | –
27 | COc1ccccc1N1CCN(C(=O)c2cc(-c3ccc(C)cc3)on2)CC1 | inconclusive: 20.6 µM [falling, partial curve, poor fit] | –
28 | COc1cc(CNc2ccc(N3CCN(C(C)=O)CC3)cc2)ccc1OCc1ccc(F)cc1 | active: 16.4 µM | –
29 | Cc1noc(C)c1S(=O)(=O)N(C)C[C@H]1Oc2ccc(NC(=O)NC3CCCCC3)cc2C(=O)N([C@H](C)CO)C[C@@H]1C | – | inactive: 1.59%
30 | O=C(Nc1cccc(S(=O)(=O)Nc2ccc(Cl)cc2)c1)c1cc2c(s1)CCCC2 | active: 23.1 µM | –
31 | COC(=O)CN1C(=O)CSc2ccc(S(=O)(=O)Nc3cccc(Br)c3)cc21 | – | inactive: -22.9%
32 | CCNC(=O)Cc1c(OC)ccc2cc(Br)ccc12 | inconclusive: 29.1 µM [falling, single point] | –
33 | COc1ccc(Cc2noc(CN(C)Cc3ccc(-n4cccn4)cc3)n2)cc1OC | inconclusive: 29.1 µM [falling, single point] | –
34 | O=C(NCCc1ccccc1)C1CCN(c2ncnc3c2nc2n3CCCCC2)CC1 | inconclusive: 29.1 µM [activator, single point] | –
35 | Cc1nn(-c2ccc(F)cc2)c(-n2cccc2)c1C(=O)N1CCN(c2ccccc2)CC1 | inconclusive: 23.1 µM [falling, single point] | –
36 | Cc1cc2nn(-c3ccccc3)nc2cc1NC(=O)COc1ccc(Cl)cc1 | – | inactive: 19.3%
37 | CCc1ccc(NC(=O)COn2nnc3ccc(S(=O)(=O)N(C)C)cc32)cc1 | inconclusive: 16.4 µM [falling, single point] | –
38 | CCOC(=O)c1cnc(-n2nc(C)cc2C)nc1NNc1ncc(-c2ccccc2)cn1 | inconclusive: 20.6 µM [falling, partial curve, poor fit] | –
39 | O=c1[nH]c(SCc2ccc([N+](=O)[O-])cc2)nc2[nH]ncc12 | inconclusive: 25.9 µM [activator, partial curve, poor fit] | –
40 | C=CCn1c(CSc2nc3ccccc3s2)nnc1SCC(=O)NCCN1CCOCC1 | inconclusive: 0.0041 µM [falling, full curve, poor fit] | –
41 | c1ccc2c(Nc3nncs3)c3ccccc3nc2c1 | inconclusive: 0.231 µM [falling, full curve, poor fit] | –
42 | COc1ccc(Cc2noc(CN3CCN(C4CCc5ccccc5C4)CC3)n2)cc1OC (stereo not given) | inconclusive: 20.6 µM [falling, partial curve] | –
43 | CN(C)C(=O)N1CCC(C(=O)NCc2ccc3c(c2)OCO3)CC1 | inconclusive: 6.51 µM [falling, single point] | –
44 | CC1CCC(NC(=O)CCc2cn(Cc3ccccc3Cl)c3ccccc23)CC1 (stereo not given) | – | inactive: -11.6%

Complete entries as entered above. Values in the order: Potency	activity change, negative = inhibition
`Cc1nn(-c2ccc(F)cc2)c(-n2cccc2)c1C(=O)N1CCN(c2ccccc2)CC1` as listed: inconclusive: 23.1 µM [falling, single point]	–
`CCc1ccc(NC(=O)COn2nnc3ccc(S(=O)(=O)N(C)C)cc32)cc1` as listed: inconclusive: 16.4 µM [falling, single point]	–
`COC(=O)c1ccccc1NC(=O)c1ccc(COc2cc(C)cc(C)c2)o1` as listed: inactive	–
`CN(C)C(=O)N1CCC(C(=O)NCc2ccc3c(c2)OCO3)CC1` as listed: inconclusive: 6.51 µM [falling, single point]	–

The list goes on.

Row | SMILES | Potency | activity change, negative = inhibition
45 | COc1cccc(/C=C2/SC(=S)N(CCC(=O)N3CCOCC3)C2=O)c1 | inconclusive: 20.6 µM [activator, single point] | –
46 | CCCCCCCCNc1ncnc2ccccc12 | active: 5.8 µM | –
47 | O=C(O)c1ccc(-n2nnnc2SCc2ccccc2Br)cc1 | inconclusive: 20.6 µM [falling, single point] | –
48 | Cc1ccc2c3c(cccc13)-c1ccccc1C2=O | inconclusive: 11.6 µM [activator, partial curve, poor fit] | –
49 | O=C(CSc1cccc[n+]1[O-])Nc1cc2c(cc1Cl)C(=O)c1ccccc1C2=O | inconclusive: 25.9 µM [activator, partial curve, poor fit] | –
50 | C=CCN(C(=O)CC(NC(C)=O)c1ccccc1)c1nc(-c2ccc(S(C)(=O)=O)cc2)cs1 (stereo not given) | inconclusive: 23.1 µM [falling, single point] | –
51 | Cc1cc(Sc2ncnc(N)c2[N+](=O)[O-])ncn1 | – | inactive: -7%
52 | CC(C)C(=O)Nc1cccc(C(=O)Nc2ccc3c(c2)OCO3)c1 | inconclusive: 3.66 µM [activator, full curve] | –
53 | NC(=O)[C@H]1CC2(CC(c3cccc(NC(=O)COc4ccc(Cl)cc4)c3)=NO2)CN1C(=O)C(c1ccccc1)c1ccccc1 (stereo not given in full) | inconclusive: 23.1 µM [falling, single point] | –
54 | CC(C)N(Cc1ccccc1)S(=O)(=O)c1cccs1 | – | inactive: -6.6%
55 | COc1ccc2c(c1)c(=Cc1ccc(N(C)C)cc1)c1cc(-c3ccccc3)[n+](C)n12 | active: 16.4 µM | –
56 | O=C(CCC1CCCN(C(=O)COc2ccccc2)C1)N1CCN(c2ccccn2)CC1 (stereo not given) | inconclusive: 25.9 µM [falling, single point] | –
57 | COc1ccc(S(=O)(=O)N(C)c2ccc(C(=O)N3CCCC3)cc2)cc1 | inconclusive: 32.6 µM [falling, single point] | –
58 | Cc1nnc(N2CCC(C(=O)Nc3ccc(F)cc3)CC2)c2nn(-c3ccc(Cl)cc3)c(C)c12 | – | inactive: -15.4%
59 | COc1c(C(=O)Nc2ccc(Br)cn2)ccc2ccccc12 | inconclusive: 6.51 µM [activator, partial curve] | –
60 | O=C(CN1C(=O)S/C(=C\c2ccc(O)cc2)C1=O)c1ccccc1 | inconclusive: 6.51 µM [activator, partial curve] | –
61 | Cc1cc([N+](=O)[O-])ccc1NC(=O)C(C)NC1CCCCC1 (stereo not given) | inconclusive: 32.6 µM [falling, single point] | –
62 | COc1ccc2c(=O)c3ccccc3oc2c1 | inconclusive: 20.6 µM [activator, single point] | –
63 | CC1CCCN(C2=C(NS(=O)(=O)c3ccc(Cl)cc3)C(=O)c3ccccc3C2=O)C1 (stereo not given) | inconclusive: 18.4 µM [falling, single point] | –
64 | CCC1(c2ccccc2)NC(=O)N(CC(=O)Nc2cc(S(=O)(=O)N3CCCCC3)ccc2OC(C)C)C1=O (stereo not given) | inconclusive: 29.1 µM [falling, single point] | –
65 | COc1ccc(CC(=O)OCC(=O)NC(=O)NC23CC4CC(CC(C4)C2)C3)cc1 | inconclusive: 5.17 µM [falling, partial curve, poor fit] | –
